± gives the standard deviation of the averaged measurements. Only a part is listed here, and it is no random draw.
Compound: Nc1ncnc2c1ncn2[C@@H]1O[C@H](COP(=O)(O)OP(=O)(O)NP(=O)(O)O)[C@@H](O)[C@H]1O [adenylyl imidodiphosphate]
Assay: NP40-soluble protein abundance relative to vehicle (solubility fold change) (ratio); higher = more soluble protein in presence of AMP-PNP
Summary of the method: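 Jurkat crude lysate prepared with a Dounce homogeniser was treated at eight concentrations spanning 0.1 to 10 mM, 10 min at room temperature then 3 min at 37 °C. Solubilisation with 0.8% NP40 and benzonase and ultracentrifugation preceded TMT labelling of the supernatant for LC-MS/MS. Fold change against the detergent-processed vehicle was determined per replicate from vsn-normalised intensities, across three independent experiments.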

Chains of the proteins cited; added tags and fusions are not shown. Lines headed by an entry give the natural chain unless they say otherwise; changes in a name come on top.
UniProt Q9NRK6: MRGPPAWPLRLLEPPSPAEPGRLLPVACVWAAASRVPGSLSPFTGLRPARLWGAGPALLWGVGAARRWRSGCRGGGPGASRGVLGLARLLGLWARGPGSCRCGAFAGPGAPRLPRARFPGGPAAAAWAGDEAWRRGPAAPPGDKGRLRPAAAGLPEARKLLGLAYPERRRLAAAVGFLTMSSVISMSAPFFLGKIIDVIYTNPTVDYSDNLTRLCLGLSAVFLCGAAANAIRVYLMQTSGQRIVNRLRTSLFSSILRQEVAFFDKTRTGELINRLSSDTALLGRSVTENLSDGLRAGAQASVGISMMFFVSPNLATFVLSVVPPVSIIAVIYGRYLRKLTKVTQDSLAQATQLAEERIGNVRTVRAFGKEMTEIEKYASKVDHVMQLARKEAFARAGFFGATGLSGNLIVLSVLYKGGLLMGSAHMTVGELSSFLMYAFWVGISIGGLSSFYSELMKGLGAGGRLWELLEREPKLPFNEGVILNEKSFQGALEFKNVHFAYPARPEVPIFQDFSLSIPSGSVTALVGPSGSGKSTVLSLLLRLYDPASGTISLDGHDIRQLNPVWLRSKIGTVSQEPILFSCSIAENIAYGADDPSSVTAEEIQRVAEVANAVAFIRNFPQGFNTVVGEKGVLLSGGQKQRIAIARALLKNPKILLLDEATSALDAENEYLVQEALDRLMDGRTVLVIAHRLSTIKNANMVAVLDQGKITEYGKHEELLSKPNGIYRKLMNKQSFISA
UniProt Q9NY93: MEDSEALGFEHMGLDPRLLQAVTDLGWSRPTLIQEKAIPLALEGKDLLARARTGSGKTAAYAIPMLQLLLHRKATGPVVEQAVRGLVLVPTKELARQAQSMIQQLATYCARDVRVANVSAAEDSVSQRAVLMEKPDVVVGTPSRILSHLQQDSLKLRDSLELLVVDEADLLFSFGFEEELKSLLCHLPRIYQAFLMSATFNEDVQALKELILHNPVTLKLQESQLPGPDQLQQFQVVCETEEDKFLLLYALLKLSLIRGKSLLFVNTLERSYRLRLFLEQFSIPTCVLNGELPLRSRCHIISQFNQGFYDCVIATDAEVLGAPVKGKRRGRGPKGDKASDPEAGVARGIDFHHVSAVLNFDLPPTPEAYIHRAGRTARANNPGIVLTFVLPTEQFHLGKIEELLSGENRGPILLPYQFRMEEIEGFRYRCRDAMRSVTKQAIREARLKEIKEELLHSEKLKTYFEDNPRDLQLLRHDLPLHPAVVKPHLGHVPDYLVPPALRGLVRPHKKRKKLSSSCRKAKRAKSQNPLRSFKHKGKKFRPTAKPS
UniProt Q9NV70: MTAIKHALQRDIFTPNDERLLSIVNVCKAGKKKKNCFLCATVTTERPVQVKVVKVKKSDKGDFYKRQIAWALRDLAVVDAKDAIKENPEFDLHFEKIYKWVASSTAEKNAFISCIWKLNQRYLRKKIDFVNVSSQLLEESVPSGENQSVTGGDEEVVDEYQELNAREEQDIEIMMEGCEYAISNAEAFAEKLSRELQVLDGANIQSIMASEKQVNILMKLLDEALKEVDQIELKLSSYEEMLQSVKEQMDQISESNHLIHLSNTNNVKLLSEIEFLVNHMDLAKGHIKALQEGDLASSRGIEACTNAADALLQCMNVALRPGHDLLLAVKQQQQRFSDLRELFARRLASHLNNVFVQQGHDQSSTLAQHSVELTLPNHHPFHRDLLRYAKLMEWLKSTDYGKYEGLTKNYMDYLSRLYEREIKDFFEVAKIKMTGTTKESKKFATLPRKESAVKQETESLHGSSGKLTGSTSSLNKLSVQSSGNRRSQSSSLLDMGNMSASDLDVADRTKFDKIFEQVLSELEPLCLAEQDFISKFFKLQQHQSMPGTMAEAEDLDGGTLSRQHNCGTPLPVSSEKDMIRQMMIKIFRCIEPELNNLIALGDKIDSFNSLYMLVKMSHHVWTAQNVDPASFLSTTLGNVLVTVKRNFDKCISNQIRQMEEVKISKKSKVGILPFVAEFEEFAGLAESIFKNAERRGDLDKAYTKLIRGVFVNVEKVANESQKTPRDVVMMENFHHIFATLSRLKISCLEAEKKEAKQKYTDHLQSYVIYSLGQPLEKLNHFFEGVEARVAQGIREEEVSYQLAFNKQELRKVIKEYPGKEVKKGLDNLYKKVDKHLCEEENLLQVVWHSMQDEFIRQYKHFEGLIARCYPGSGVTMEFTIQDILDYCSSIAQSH
UniProt Q9NQX3: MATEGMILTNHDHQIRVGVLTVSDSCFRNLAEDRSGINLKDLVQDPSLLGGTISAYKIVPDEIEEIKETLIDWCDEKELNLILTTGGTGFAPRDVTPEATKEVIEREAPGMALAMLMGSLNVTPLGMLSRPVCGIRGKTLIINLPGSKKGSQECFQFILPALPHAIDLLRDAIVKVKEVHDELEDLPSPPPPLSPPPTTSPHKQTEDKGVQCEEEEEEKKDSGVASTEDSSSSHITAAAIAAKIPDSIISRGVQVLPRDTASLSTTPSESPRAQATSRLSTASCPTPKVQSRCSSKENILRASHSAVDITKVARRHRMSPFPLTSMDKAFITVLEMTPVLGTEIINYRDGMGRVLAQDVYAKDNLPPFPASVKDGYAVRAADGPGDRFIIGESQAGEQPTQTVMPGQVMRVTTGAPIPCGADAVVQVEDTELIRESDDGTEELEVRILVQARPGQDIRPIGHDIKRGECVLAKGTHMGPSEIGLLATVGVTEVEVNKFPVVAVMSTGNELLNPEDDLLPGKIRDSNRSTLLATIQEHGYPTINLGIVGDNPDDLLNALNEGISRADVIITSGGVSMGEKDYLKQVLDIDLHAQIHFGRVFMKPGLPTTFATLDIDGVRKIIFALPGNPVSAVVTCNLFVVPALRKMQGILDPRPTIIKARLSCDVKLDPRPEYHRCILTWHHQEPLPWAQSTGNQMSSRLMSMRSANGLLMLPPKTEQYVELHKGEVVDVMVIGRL
UniProt Q9NVG8: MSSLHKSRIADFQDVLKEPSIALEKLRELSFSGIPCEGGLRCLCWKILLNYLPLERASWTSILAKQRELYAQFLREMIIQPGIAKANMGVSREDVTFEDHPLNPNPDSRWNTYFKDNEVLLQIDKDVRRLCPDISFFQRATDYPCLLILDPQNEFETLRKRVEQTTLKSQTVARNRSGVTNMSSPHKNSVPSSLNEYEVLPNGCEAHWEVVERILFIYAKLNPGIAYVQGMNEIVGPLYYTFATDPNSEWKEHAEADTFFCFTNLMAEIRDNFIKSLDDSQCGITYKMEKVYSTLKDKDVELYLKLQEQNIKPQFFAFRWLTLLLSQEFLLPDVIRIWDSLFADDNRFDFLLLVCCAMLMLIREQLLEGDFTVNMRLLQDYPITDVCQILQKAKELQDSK
UniProt Q9NZ63: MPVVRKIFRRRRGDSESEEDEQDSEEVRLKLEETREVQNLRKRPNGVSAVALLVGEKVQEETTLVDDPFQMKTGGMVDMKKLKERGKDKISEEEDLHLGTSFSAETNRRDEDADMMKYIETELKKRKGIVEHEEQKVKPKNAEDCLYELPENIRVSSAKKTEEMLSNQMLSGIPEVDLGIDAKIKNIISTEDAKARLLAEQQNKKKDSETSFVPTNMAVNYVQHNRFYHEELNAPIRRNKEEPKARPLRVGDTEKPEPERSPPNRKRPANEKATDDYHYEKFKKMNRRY
UniProt Q9NWQ8: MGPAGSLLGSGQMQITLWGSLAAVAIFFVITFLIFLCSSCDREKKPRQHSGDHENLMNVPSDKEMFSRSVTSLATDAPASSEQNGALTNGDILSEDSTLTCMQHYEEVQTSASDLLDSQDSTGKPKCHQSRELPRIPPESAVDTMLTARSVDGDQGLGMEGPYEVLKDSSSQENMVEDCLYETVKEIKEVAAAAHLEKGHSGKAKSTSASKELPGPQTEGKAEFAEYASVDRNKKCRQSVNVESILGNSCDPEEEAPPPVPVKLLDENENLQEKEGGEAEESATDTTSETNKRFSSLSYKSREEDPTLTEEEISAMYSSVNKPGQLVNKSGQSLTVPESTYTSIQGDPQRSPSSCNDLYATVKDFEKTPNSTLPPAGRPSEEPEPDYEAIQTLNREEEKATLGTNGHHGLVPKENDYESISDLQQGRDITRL
UniProt Q9NS73: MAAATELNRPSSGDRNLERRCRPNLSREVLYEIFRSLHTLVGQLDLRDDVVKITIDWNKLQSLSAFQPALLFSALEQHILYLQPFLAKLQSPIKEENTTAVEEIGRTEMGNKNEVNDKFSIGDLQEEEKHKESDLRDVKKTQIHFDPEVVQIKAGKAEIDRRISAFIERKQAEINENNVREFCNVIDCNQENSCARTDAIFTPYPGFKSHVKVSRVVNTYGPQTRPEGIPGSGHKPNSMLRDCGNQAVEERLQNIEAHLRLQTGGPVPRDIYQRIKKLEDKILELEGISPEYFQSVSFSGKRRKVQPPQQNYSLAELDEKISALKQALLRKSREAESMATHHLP
UniProt Q9NRP0: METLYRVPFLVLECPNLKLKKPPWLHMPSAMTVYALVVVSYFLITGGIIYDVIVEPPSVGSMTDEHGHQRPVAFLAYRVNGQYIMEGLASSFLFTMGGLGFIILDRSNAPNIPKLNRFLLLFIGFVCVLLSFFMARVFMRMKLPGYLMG
UniProt Q9NX40: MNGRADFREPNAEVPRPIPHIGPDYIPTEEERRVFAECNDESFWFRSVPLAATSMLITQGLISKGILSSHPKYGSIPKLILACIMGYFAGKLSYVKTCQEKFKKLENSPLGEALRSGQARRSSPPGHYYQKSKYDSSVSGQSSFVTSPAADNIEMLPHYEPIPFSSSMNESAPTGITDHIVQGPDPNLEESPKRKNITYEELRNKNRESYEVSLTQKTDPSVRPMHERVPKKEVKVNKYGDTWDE
UniProt Q9NV35: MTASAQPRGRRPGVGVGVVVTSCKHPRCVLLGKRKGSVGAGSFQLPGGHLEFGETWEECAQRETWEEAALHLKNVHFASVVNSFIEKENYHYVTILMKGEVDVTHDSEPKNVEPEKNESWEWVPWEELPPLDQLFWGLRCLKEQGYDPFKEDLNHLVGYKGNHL
UniProt Q9NQG5: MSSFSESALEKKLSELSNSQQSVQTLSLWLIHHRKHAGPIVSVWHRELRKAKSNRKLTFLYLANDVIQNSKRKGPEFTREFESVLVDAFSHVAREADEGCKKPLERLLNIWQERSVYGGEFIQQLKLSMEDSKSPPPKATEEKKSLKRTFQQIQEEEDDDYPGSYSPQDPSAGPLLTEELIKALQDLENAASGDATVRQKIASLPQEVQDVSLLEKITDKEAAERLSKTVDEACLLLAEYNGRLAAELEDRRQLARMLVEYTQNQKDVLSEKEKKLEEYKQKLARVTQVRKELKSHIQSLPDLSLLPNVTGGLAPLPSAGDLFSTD
UniProt Q9NQW6: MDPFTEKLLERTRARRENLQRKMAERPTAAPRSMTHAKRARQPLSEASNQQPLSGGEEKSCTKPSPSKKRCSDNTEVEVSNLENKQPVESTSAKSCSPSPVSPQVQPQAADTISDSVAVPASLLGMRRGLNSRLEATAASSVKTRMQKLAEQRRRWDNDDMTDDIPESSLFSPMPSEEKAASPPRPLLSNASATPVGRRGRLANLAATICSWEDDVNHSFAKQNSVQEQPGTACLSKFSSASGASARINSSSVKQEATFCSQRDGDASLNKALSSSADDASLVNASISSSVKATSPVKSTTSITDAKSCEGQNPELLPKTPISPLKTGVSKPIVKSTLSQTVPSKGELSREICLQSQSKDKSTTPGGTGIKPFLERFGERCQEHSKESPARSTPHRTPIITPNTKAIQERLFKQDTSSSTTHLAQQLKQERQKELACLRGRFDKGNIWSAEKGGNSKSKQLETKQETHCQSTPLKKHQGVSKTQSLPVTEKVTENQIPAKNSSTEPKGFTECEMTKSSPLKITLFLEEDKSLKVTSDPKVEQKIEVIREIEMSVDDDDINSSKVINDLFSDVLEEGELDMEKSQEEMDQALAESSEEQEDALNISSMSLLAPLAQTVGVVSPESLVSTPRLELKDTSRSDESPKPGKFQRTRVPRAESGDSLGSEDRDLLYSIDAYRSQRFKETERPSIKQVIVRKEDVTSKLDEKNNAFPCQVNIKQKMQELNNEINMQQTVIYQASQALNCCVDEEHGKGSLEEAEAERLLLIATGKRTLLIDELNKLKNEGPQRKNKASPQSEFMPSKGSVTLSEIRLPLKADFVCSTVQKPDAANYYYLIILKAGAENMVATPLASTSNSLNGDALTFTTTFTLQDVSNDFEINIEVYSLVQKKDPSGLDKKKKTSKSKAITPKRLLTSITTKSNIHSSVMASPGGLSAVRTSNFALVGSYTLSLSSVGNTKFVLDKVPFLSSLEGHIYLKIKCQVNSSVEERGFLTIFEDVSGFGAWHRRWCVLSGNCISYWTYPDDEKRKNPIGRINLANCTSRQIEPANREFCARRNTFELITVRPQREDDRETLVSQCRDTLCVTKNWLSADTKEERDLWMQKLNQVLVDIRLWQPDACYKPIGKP

Target | NP40-soluble protein abundance (concentration: 1mM) | NP40-soluble protein abundance (concentration: 2mM) | NP40-soluble protein abundance (concentration: 4mM) | NP40-soluble protein abundance (concentration: 6mM) | NP40-soluble protein abundance (concentration: 8mM) | NP40-soluble protein abundance (concentration: 10mM)
ABCB10 (UniProt Q9NRK6) | 0.952 ± 0.031 | 0.876 ± 0.076 | 0.958 ± 0.027 | 0.929 ± 0.045 | 0.985 ± 0.02 | 0.9181 ± 0.0057
UniProt Q9NPQ8 and related entries | 1.07 ± 0.021 | 1.05 ± 0.028 | 1.06 ± 0.051 | 1.02 ± 0.046 | 1.02 ± 0.055 | 1.03 ± 0.046
GTSE1 (UniProt Q9NYZ3) | 1.01 ± 0.026 | 1.03 ± 0.029 | 1.03 ± 0.054 | 1.03 ± 0.041 | 1.02 ± 0.069 | 1.04 ± 0.06
UniProt Q9NX74 | 0.996 ± 0.027 | 0.985 ± 0.03 | 0.986 ± 0.038 | 0.9913 ± 0.0087 | 0.998 ± 0.028 | 1.02 ± 0.018
UniProt Q9NUP7 | 1.03 ± 0.013 | 1.02 ± 0.019 | 1.02 ± 0.051 | 0.973 ± 0.037 | 0.97 ± 0.029 | 0.988 ± 0.032
UniProt Q9NVM4 and related entries | 1 ± 0.058 | 0.9878 ± 0.0085 | 1.01 ± 0.012 | 0.9707 ± 0.0083 | 0.991 ± 0.022 | 0.946 ± 0.022
UniProt Q9NW15 and related entries | 0.992 ± 0.031 | 1.01 ± 0.037 | 1.01 ± 0.023 | 0.975 ± 0.035 | 1.02 ± 0.08 | 0.969 ± 0.047
DDX21 (UniProt Q9NR30) | 1.21 ± 0.11 | 1.25 ± 0.13 | 1.39 ± 0.23 | 1.55 ± 0.31 | 1.66 ± 0.38 | 1.78 ± 0.4
UniProt Q9NY93 and related entries | 1.014 ± 0.0045 | 1.03 ± 0.025 | 1.01 ± 0.018 | 0.978 ± 0.015 | 0.962 ± 0.042 | 0.995 ± 0.03
UniProt Q9NZ08 and related entries | 0.976 ± 0.05 | 0.9575 ± 0.0043 | 1 ± 0.048 | 1.06 ± 0.084 | 1.08 ± 0.064 | 1.07 ± 0.047
UniProt Q9NV70 and related entries | 0.974 ± 0.013 | 0.963 ± 0.014 | 0.967 ± 0.022 | 0.9512 ± 0.0053 | 0.941 ± 0.018 | 0.969 ± 0.024
MBD2 (UniProt Q9UBB5) | 1.01 ± 0.041 | 1.06 ± 0.043 | 1.02 ± 0.037 | 1.033 ± 0.0055 | 1.04 ± 0.024 | 1.07 ± 0.033
UniProt Q9NQX3 and related entries | 1.01 ± 0.021 | 1.03 ± 0.014 | 0.986 ± 0.016 | 0.962 ± 0.04 | 0.945 ± 0.031 | 0.961 ± 0.034
UniProt Q9UBL0 and related entries | 1.02 ± 0.0088 | 1.04 ± 0.062 | 0.988 ± 0.027 | 0.997 ± 0.013 | 0.949 ± 0.023 | 0.977 ± 0.028
UniProt Q9NYP9 | 0.982 ± 0.017 | 0.987 ± 0.018 | 0.944 ± 0.018 | 0.927 ± 0.03 | 0.885 ± 0.019 | 0.8884 ± 0.0083
TBC1D13 (UniProt Q9NVG8) | 0.991 ± 0.016 | 0.96 ± 0.026 | 0.995 ± 0.044 | 0.925 ± 0.018 | 0.96 ± 0.015 | 0.921 ± 0.014
C9orf78 (UniProt Q9NZ63) | 0.999 ± 0.047 | 1.03 ± 0.038 | 0.982 ± 0.055 | 0.971 ± 0.036 | 0.966 ± 0.034 | 0.939 ± 0.078
UniProt Q9NVH1 and related entries | 1.02 ± 0.034 | 0.947 ± 0.09 | 0.974 ± 0.064 | 0.991 ± 0.035 | 0.987 ± 0.056 | 0.995 ± 0.081
PAG1 (UniProt Q9NWQ8) | 1.04 ± 0.035 | 1.08 ± 0.043 | 1.05 ± 0.054 | 1.01 ± 0.049 | 1 ± 0.018 | 1.01 ± 0.05
IGF2BP1 (UniProt Q9NZI8) | 1.01 ± 0.03 | 0.995 ± 0.026 | 0.9899 ± 0.0031 | 1.05 ± 0.035 | 1.02 ± 0.039 | 1.01 ± 0.05
UniProt Q9NS73 and related entries | 1.02 ± 0.024 | 1.03 ± 0.011 | 1.03 ± 0.047 | 1.02 ± 0.042 | 1.02 ± 0.02 | 1.007 ± 0.0054
ABCF3 (UniProt Q9NUQ8) | 1.05 ± 0.044 | 0.994 ± 0.069 | 1.06 ± 0.051 | 1.02 ± 0.06 | 1.05 ± 0.064 | 1.01 ± 0.048
OSTC (UniProt Q9NRP0) | 1.02 ± 0.038 | 1.02 ± 0.025 | 1.03 ± 0.049 | 1.03 ± 0.022 | 1.039 ± 0.0094 | 1.04 ± 0.015
MRPL39 (UniProt Q9NYK5) | 0.996 ± 0.091 | 0.952 ± 0.15 | 0.966 ± 0.17 | 0.945 ± 0.16 | 0.959 ± 0.1 | 0.95 ± 0.19
OCIAD1 (UniProt Q9NX40) | 1.01 ± 0.026 | 1.06 ± 0.019 | 0.993 ± 0.053 | 0.975 ± 0.027 | 0.975 ± 0.046 | 0.973 ± 0.061
NUDT15 (UniProt Q9NV35) | 0.957 ± 0.049 | 1.01 ± 0.048 | 0.975 ± 0.053 | 1.02 ± 0.072 | 1.01 ± 0.023 | 1.01 ± 0.059
UniProt Q9NVI7-2 | 1.08 ± 0.075 | 1.05 ± 0.073 | 1.14 ± 0.18 | 1.29 ± 0.18 | 1.38 ± 0.24 | 1.44 ± 0.32
UniProt Q9NZD8 and related entries | 1.02 ± 0.021 | 0.995 ± 0.041 | 1.02 ± 0.021 | 0.988 ± 0.018 | 0.989 ± 0.053 | 0.991 ± 0.047
RPRD1B (UniProt Q9NQG5) | 0.998 ± 0.055 | 1.08 ± 0.039 | 1.03 ± 0.087 | 0.95 ± 0.04 | 0.984 ± 0.034 | 0.86 ± 0.1
UniProt Q9NQW6 and related entries | 1.026 ± 0.0093 | 1.07 ± 0.06 | 1.05 ± 0.034 | 1.01 ± 0.03 | 0.98 ± 0.02 | 1.04 ± 0.026

Record cards, from the list above. Values in the order: NP40-soluble protein abundance (concentration: 1mM)	NP40-soluble protein abundance (concentration: 2mM)	NP40-soluble protein abundance (concentration: 4mM)	NP40-soluble protein abundance (concentration: 6mM)	NP40-soluble protein abundance (concentration: 8mM)	NP40-soluble protein abundance (concentration: 10mM)
OSTC (UniProt Q9NRP0) is entered as 1.02 ± 0.038	1.02 ± 0.025	1.03 ± 0.049	1.03 ± 0.022	1.039 ± 0.0094	1.04 ± 0.015
UniProt Q9NVH1 and related entries is entered as 1.02 ± 0.034	0.947 ± 0.09	0.974 ± 0.064	0.991 ± 0.035	0.987 ± 0.056	0.995 ± 0.081
